# About 170 (0.05%) of roughly 340,000 compounds were called active. This list was built around the results that the source calls inconclusive (neither active nor inactive); the mix of calls is not that of the screen. The call rests on the fitted dose curve; in most records, active means well fitted inhibition curve with a large enough effect in the signal ratio, with a control signal flat (not every such curve was filed as active); inconclusive means small, poorly fitted or top-dose-only effect, or effect the other way, or a change in a side signal; inactive means flat fitted curve, though single readings scatter; the % refers to the signal ratio. Where the call is inconclusive, the potency comes from a doubtful curve fit.
# Assay: qHTS Assay to Find Inhibitors of Chronic Active B-Cell Receptor Signaling;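 on activity change, negative = inhibition: plate controls were basal doxycycline-induced cells for no effect and cells given 10 µM MG132 for full effect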
# Conditions: ABC-DLBCL IkBa-CBG/CBR reporter, luminescence ratio (green luciferase fused to IkBa over red control in TMD8 lymphoma cells), 4 h; activity change, negative = inhibition: at 46.1 µM (top of the series)
# Outline: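 Concentration-response series (up to 46 uM) were applied to TMD8 dual-reporter cells for 4 h at 37C with doxycycline. Green/red ratio, after filter-overlap correction, defined %Activity; red signal alone was normalised to basal cells and zero luminescence.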
# Potency means the concentration at half of the fitted maximal effect.
Compound,"activity change, negative = inhibition",Potency
CCc1cccc(NC(=O)Cn2c(=O)n(Cc3ccccc3)c(=O)c3c(C)c(C(=O)N(C)C)sc32)c1,inconclusive: -6.17%,–
N#C/C(=C\c1ccc(Cl)c([N+](=O)[O-])c1)c1ccccn1,inactive: -5.33%,–
COc1c(C)cc(Br)cc1C(=O)Nc1ccccc1N1CCN(C(=O)c2ccccc2)CC1,inactive: 2.58%,–
Cn1c(CCN2CCCC2)nc2cc(NS(=O)(=O)c3ccc(Cl)cc3)ccc21,–,"inconclusive: 35.5 µM [falling, single point]"
COc1ccc(CCN2C(=O)c3[nH]nc(-c4ccccc4O)c3C2c2ccc(C)cc2)cc1OC (stereo not given),inconclusive: -0.0725%,–
CCN(CC(=O)Nc1cccc(OC)c1)C(=O)c1cccc(S(=O)(=O)N2CCc3ccccc32)c1,inconclusive: 2.21%,–
COCc1cc(/C=N\NC(=O)Cc2ccc(OC)cc2)ccc1OC,inactive: -11.6%,–
O=C(c1ccccc1)c1ccc2n1CCC2C(=O)O (stereo not given),inconclusive: 1.08%,–
Cc1ccc(-c2[nH]n3c(=O)c4c(nc3c2C)CCCC4)cc1,inconclusive: 5.6%,–
COc1cc(C(=O)Oc2ccccc2/C=N/NC(=O)c2ccc(Cl)cc2Cl)cc(OC)c1OC,inactive: -22.3%,–
OC[C@@H]1[C@@H](c2ccccc2)C(c2ccccc2)=NN1c1ccccc1,inactive: -0.57%,–
Cc1ccc2nsnc2c1S(=O)(=O)N1CCN(Cc2ccc3c(c2)OCO3)CC1,inconclusive: 4.82%,–
COc1ccc(CN2C(=O)NC(C)(c3ccc(C)cc3)C2=O)cc1F (stereo not given),inconclusive: -3.18%,–
COC(=O)c1cnn(-c2cc(Oc3ccccc3)ncn2)c1N,inconclusive: 12.1%,–
COC(=O)C1=C(C)N(C)C(=S)NC1c1ccc(OC)cc1OC (stereo not given),inactive: -2.25%,–
Cc1cccc(NC(=O)CS(=O)(=O)c2cn(CC(=O)N3CCOCC3)c3ccccc23)c1,–,"inconclusive: 17.8 µM [falling, partial curve, poor fit]"
N#C/C(=C\c1ccccc1[N+](=O)[O-])c1nc(C2CC2)cs1,inactive: 2.3%,–
NS(=O)(=O)c1ccc(CNC(=O)/C=C/c2ccc(S(=O)(=O)N3CCOCC3)cc2)cc1,inconclusive: -0.442%,–
CCOC(=O)c1c(C)[nH]c(C(=O)NNC(=O)c2ccc(C(C)(C)C)cc2)c1C,inconclusive: 21.3%,–
COCCNc1oc(-c2ccc(Cl)cc2)nc1C#N,inconclusive: 15.6%,–
COc1ccccc1N1CCN(C(=O)C2Cc3ccccc3CN2C(=O)c2ccco2)CC1 (stereo not given),inconclusive: 0.454%,–
O=C(O)c1ccc2c(c1)C(=O)/C(=C\c1ccco1)C2=O,inconclusive: -10.1%,–

Compound,"activity change, negative = inhibition",Potency
CC(C)(C)NC(=O)/C(=C\c1ccccc1F)NC(=O)c1ccc([N+](=O)[O-])cc1,inconclusive: 3.78%,–
Cc1cc(C(=O)NNC(=O)c2cccc([N+](=O)[O-])c2)n[nH]1,–,"inconclusive: 23.1 µM [falling, single point]"
O=C(Nc1nnc(Cc2ccc(Cl)cc2)s1)c1cccs1,inconclusive: 8.53%,–
O=C(c1ccco1)N1CCN(Cc2cccc(F)c2)CC1,inactive: 8.97%,–
CCCNC(=O)COC(=O)c1ccccc1C(=O)c1ccc(Cl)c([N+](=O)[O-])c1,inconclusive: 21.3%,–
NS(=O)(=O)c1ccc(NC(=O)CSc2nnc(Cc3cccs3)n2-c2ccccc2)cc1,inconclusive: 14.5%,–
COc1cc(C(=O)OCC(=O)NC23CC4CC(CC(C4)C2)C3)cc(OC)c1OC,inconclusive: 1.02%,–
OCC1(CCOc2ccccc2)CCN(Cc2ccccc2OC(F)F)CC1,inactive: 3.52%,–
Cc1ccc(C(=O)CC2SC(N)=NC2=O)cc1 (stereo not given),inconclusive: 5.24%,–
O=C(NN=C1CCN(Cc2ccccc2)CC1)c1ccccc1O,–,"inconclusive: 5.62 µM [rising, full curve]"
CCOC(=O)c1c[nH]n(-c2ccccc2)c1=O,–,"inconclusive: 22.4 µM [falling, partial curve]"
Cc1ccc(CN2C(=O)C(=O)c3cc(C)ccc32)cc1,inconclusive: -10.6%,–
COc1ccccc1NC(=O)C(=O)NCCCN1CCCC1=O,–,"inconclusive: 18.4 µM [falling, partial curve]"
O=C(c1cc2ccccc2oc1=O)N(Cc1cccc(Br)c1)C1CCS(=O)(=O)C1 (stereo not given),inconclusive: -20%,–
O=C(CSC(=S)N1CCOCC1)c1cc(Br)cc(Br)c1O,inconclusive: 1.77%,–
O=C(Nc1ccc2c(c1)OCCO2)c1ccc(Br)o1,–,"inconclusive: 17.8 µM [falling, single point]"
O=C1CN(c2nc(-c3ccccc3)c3cc(Cl)ccc3n2)c2ccccc2N1,inactive: -1.12%,–
COc1cccc(CNC(=O)Cn2cc3c(n2)CCCCC3)c1,–,"inconclusive: 18.4 µM [falling, partial curve]"
COC(=O)Cn1cnc2ccccc2c1=O,inconclusive: -12.9%,–
COCCN1Cc2cccc(C(=O)N3CCN(c4cc(C)ccc4C)CC3)c2C1=O,inactive: 8.25%,–
CCN(CCn1cccn1)C(=O)CCc1nnc(CCCc2ccccc2)o1,inconclusive: 8.57%,–
O=C(NC1CCCCC1)C(c1ccccc1)N(C(=O)c1csnn1)C1CCCC1 (stereo not given),inconclusive: 1.16%,–

# 25 entries from above in a different format.
Compound	activity change, negative = inhibition	Potency
CCN(CC(=O)Nc1cccc(OC)c1)C(=O)c1cccc(S(=O)(=O)N2CCc3ccccc32)c1	inconclusive: 2.21%	–
COCc1cc(/C=N\NC(=O)Cc2ccc(OC)cc2)ccc1OC	inactive: -11.6%	–
O=C(c1ccccc1)c1ccc2n1CCC2C(=O)O (stereo not given)	inconclusive: 1.08%	–
Cc1ccc(-c2[nH]n3c(=O)c4c(nc3c2C)CCCC4)cc1	inconclusive: 5.6%	–
COc1cc(C(=O)Oc2ccccc2/C=N/NC(=O)c2ccc(Cl)cc2Cl)cc(OC)c1OC	inactive: -22.3%	–
OC[C@@H]1[C@@H](c2ccccc2)C(c2ccccc2)=NN1c1ccccc1	inactive: -0.57%	–
Cc1ccc2nsnc2c1S(=O)(=O)N1CCN(Cc2ccc3c(c2)OCO3)CC1	inconclusive: 4.82%	–
COc1ccc(CN2C(=O)NC(C)(c3ccc(C)cc3)C2=O)cc1F (stereo not given)	inconclusive: -3.18%	–
COC(=O)c1cnn(-c2cc(Oc3ccccc3)ncn2)c1N	inconclusive: 12.1%	–
COC(=O)C1=C(C)N(C)C(=S)NC1c1ccc(OC)cc1OC (stereo not given)	inactive: -2.25%	–
Cc1cccc(NC(=O)CS(=O)(=O)c2cn(CC(=O)N3CCOCC3)c3ccccc23)c1	–	inconclusive: 17.8 µM [falling, partial curve, poor fit]
N#C/C(=C\c1ccccc1[N+](=O)[O-])c1nc(C2CC2)cs1	inactive: 2.3%	–
NS(=O)(=O)c1ccc(CNC(=O)/C=C/c2ccc(S(=O)(=O)N3CCOCC3)cc2)cc1	inconclusive: -0.442%	–
CCOC(=O)c1c(C)[nH]c(C(=O)NNC(=O)c2ccc(C(C)(C)C)cc2)c1C	inconclusive: 21.3%	–
COCCNc1oc(-c2ccc(Cl)cc2)nc1C#N	inconclusive: 15.6%	–
COc1ccccc1N1CCN(C(=O)C2Cc3ccccc3CN2C(=O)c2ccco2)CC1 (stereo not given)	inconclusive: 0.454%	–
O=C(O)c1ccc2c(c1)C(=O)/C(=C\c1ccco1)C2=O	inconclusive: -10.1%	–
CC(C)(C)NC(=O)/C(=C\c1ccccc1F)NC(=O)c1ccc([N+](=O)[O-])cc1	inconclusive: 3.78%	–
Cc1cc(C(=O)NNC(=O)c2cccc([N+](=O)[O-])c2)n[nH]1	–	inconclusive: 23.1 µM [falling, single point]
O=C(Nc1nnc(Cc2ccc(Cl)cc2)s1)c1cccs1	inconclusive: 8.53%	–
O=C(c1ccco1)N1CCN(Cc2cccc(F)c2)CC1	inactive: 8.97%	–
CCCNC(=O)COC(=O)c1ccccc1C(=O)c1ccc(Cl)c([N+](=O)[O-])c1	inconclusive: 21.3%	–
NS(=O)(=O)c1ccc(NC(=O)CSc2nnc(Cc3cccs3)n2-c2ccccc2)cc1	inconclusive: 14.5%	–
COc1cc(C(=O)OCC(=O)NC23CC4CC(CC(C4)C2)C3)cc(OC)c1OC	inconclusive: 1.02%	–
OCC1(CCOc2ccccc2)CCN(Cc2ccccc2OC(F)F)CC1	inactive: 3.52%	–

# Additional results follow.

Compound,"activity change, negative = inhibition",Potency
FC(F)(F)c1ccnc(N2CCN(Cc3cnc(-c4ccccc4)[nH]3)CC2)c1,inactive: -5.61%,–
O=C(/C=C/c1ccc(F)cc1)Nc1ccc(S(=O)(=O)Nc2ncccn2)cc1,–,"inconclusive: 22.4 µM [falling, partial curve, poor fit]"
COc1ccc2sc(-c3ccc(S(C)(=O)=O)cc3)c(-c3ccc(C(N)=O)cc3)c2c1,inconclusive: 3.66%,–
COc1ccc(S(=O)(=O)N(CCCN2CCOCC2)Cc2cccc3ccccc23)cc1,–,"inconclusive: 18.4 µM [falling, single point]"
Cc1noc(C)c1CSCC(=O)Nc1cc(Cl)ccc1N1CCOCC1,inconclusive: 4.38%,–
Cc1ccc(-c2csc(=S)[nH]2)cc1,inconclusive: 9.58%,–
CN(C)N1C(N)=C(C#N)C(c2ccc3c(c2)OCO3)C2=C1CC(C)(C)CC2=O (stereo not given),inconclusive: -0.217%,–
CN(C)S(=O)(=O)c1cccc(C(=O)OCC(=O)NC2CCCc3ccccc32)c1 (stereo not given),inconclusive: 0.385%,–
CCN(Cc1ccc(C#CCCO)cc1)CC1CCCN(CCc2cccc(F)c2)C1 (stereo not given),inconclusive: -5.93%,–
CCSc1nnc(NC(=O)Nc2cccc(C)c2)s1,inconclusive: 1.69%,–
Cc1ccc(Cc2cnc(N3C(=N)SC(c4ccccc4)C3=O)s2)cc1 (stereo not given),inactive: 8.79%,–
CCc1ccc2c(CN(C)Cc3ccc(OC(F)F)c(OC)c3)cc(=O)oc2c1,inactive: 0.49%,–
CCOC(=O)c1ccc(OCc2c(C)noc2C)cc1,inconclusive: 13.8%,–
Cc1nn(-c2ccccc2)c(C)c1/C=N/NC(=O)c1cc(O)cc(O)c1,inconclusive: -0.114%,–
Cc1cc(S(=O)(=O)N2CCN(c3ccccc3C)CC2)ccc1F,inconclusive: 17.5%,–
Cc1cccc(N(CC(=O)NCc2ccco2)C(=O)CCC(=O)Nc2nccs2)c1C,inconclusive: 5.12%,–
O=C(O)CCn1cc(/C=C/C(=O)c2ccc(Cl)cc2)c(-c2cccc(Br)c2)n1,inconclusive: -2.3%,–
Fc1ccc(-c2nc3cnccn3c2NC2CCCC2)cc1,inactive: 1.04%,–
CCOc1ccccc1NC(=O)CSc1nc2c(c(=O)n1C)SC(C)C2 (stereo not given),inconclusive: -11.1%,–
NC(=O)c1ccsc1NC(=O)Cc1ccc([N+](=O)[O-])cc1,–,"inconclusive: 10 µM [falling, partial curve]"
CC(C)c1ccc(N(CC(=O)NCCSCc2ccco2)S(C)(=O)=O)cc1,inconclusive: 5.66%,–
C/C=C/c1ccc(OCC(=O)Nc2ccc(OC)c(OC)c2)c(OC)c1,inactive: 13.8%,–

Compound,"activity change, negative = inhibition",Potency
CCC1(C)Cc2c(sc3nc4n(c(=O)c23)CCS4)CO1 (stereo not given),inconclusive: -5.96%,–
CSCCC(NC(=O)c1ccc(Cl)cc1Cl)C(=O)NNC(=O)c1ccncc1 (stereo not given),inactive: 0.0548%,–
COCCn1c(CN2CCN(C)CC2)nc2c1c(=O)n(C)c(=O)n2C,inactive: 8.21%,–
Cc1noc(C)c1S(=O)(=O)N1CCC(C(=O)N(C)Cc2ccccc2)CC1,inconclusive: 7.03%,–
Cc1ccc(C(=O)Nc2ccc(Br)c(C(F)(F)F)c2)cc1,inconclusive: 20.3%,–
Cc1ccc(CN2CCN(CC(=O)N/N=C/c3ccccc3F)CC2)cc1,inconclusive: -17.8%,–
C#CCSc1nnc(-c2ccc(OC)cc2)o1,–,"inconclusive: 29.1 µM [falling, single point]"
CN(CCOC(=O)c1ccccc1)Cc1ccccc1,inactive: -1.11%,–
CC1CCCCN1C(=O)c1ccc(C(=O)c2ccccc2)cc1 (stereo not given),inactive: 3.67%,–
COc1ccccc1C(=O)NCC(c1cccs1)N1CCc2ccccc21 (stereo not given),inconclusive: 6.12%,–
CCc1[nH]nc2c1C1(CCOC1C)C(C#N)=C(N)O2 (stereo not given),inactive: 1.54%,–
COc1ccc(NC(=S)Nc2ccccn2)cc1,–,"inconclusive: 35.5 µM [falling, partial curve, poor fit]"
Cc1nn(-c2cc(C(F)(F)F)ccc2Cl)c2nc(C(Cl)(Cl)Cl)[nH]c(=O)c12,inconclusive: 23.1%,–
FC(F)(F)c1cnc(N2CCN(C(=S)NCc3ccccc3)CC2)c(Cl)c1,inconclusive: -10.9%,–
CCC(=O)Nc1sc2c(c1C(N)=O)CCN(C(C)=O)C2,inconclusive: 7.7%,–
CC1Cc2ccccc2N1C(=O)Cn1cnc2c1c(=O)n(C)c(=O)n2C (stereo not given),inactive: 4.17%,–
COCCOC(=O)C1=C(C)Nc2nc(C)nn2C1c1ccc(F)cc1 (stereo not given),inconclusive: 3.66%,–
CCOP(=O)(c1ccccc1)c1nc(-c2ccccc2Cl)oc1N1CCCCC1 (stereo not given),inconclusive: 16.9%,–
O=C(c1cccc(C(=O)N(c2ccccn2)C2CCCCC2)c1)N(c1ccccn1)C1CCCCC1,inactive: 0.715%,–
